# Results from patent publication US12187755B2, “Minimal saponin analogues, synthesis and use thereof” (MEMORIAL SLOAN-KETTERING CANCER CENTER, priority 2014, dated 2025).
# Some of these results come from one statement about several compounds together. At least one structure is not confirmed: it was looked up by name or label, or the drawing left a doubt.
# Assay: toxicity assessment by mouse weight loss after first vaccination
# Assay type: in vivo
# Settings: four-component vaccine, one week after first injection
# Method: Groups of five mice (C57BL/6J, female, 6-8 weeks of age) were vaccinated with a three-component vaccine consisting of MUC1-KLH ([…]) and OVA ([…]), or a four-component vaccine that also included GD3-KLH ([…]). Antigens were co-administered with the adjuvant of interest ([…]) or without adjuvant (no-adjuvant control) in phosphate buffered saline (PBS, […]) via subcutaneous injections on days 0, 7, and 14, followed by a booster on day 65. Mouse sera were collected at day 72 and antibody titers against each antigen were determined by ELISA. Statistical significance of each antibody response compared to the no-adjuvant control was assessed using a two-tailed unpaired Student's t-test with CI=95%. As an initial, general assessment of toxicity, mouse weight loss was monitored on days 0, 1, 2, 3, and 7 after the first vaccination. These animal experiments were conducted as described in MSKCC Institutional Animal Care and Use Committee (IACUC) protocol #97-11-051.
compound,measurement,value
C[C@@H]1O[C@@H](O[C@H]2[C@H](OC(=O)[C@]34CCC(C)(C)C[C@H]3C3=CC[C@@H]5[C@@]6(C)CC[C@H](O)[C@@](C)(CO)[C@@H]6CC[C@@]5(C)[C@]3(C)CC4)O[C@H](CO)[C@H](NC(=O)CCCCCNC(=O)c3ccc(I)cc3)[C@@H]2O)[C@H](O)[C@H](O)[C@H]1O[C@@H]1OC[C@@H](O)[C@H](O)[C@H]1O [compound 22],toxicity (mouse weight loss),lack of toxicity
